According to PubChem BioAssay AID2551 (National Center for Advancing Translational Sciences (NCATS), 2010):
Among all 310,000 compounds or so, about 17,000 (5.5%) were called active. This list was built around the results that the source calls inconclusive (neither active nor inactive); the mix of calls is not that of the screen. Calls follow the shape of the dose curve; as a rule, active = well fitted inhibition curve with a large enough effect; inconclusive = small, poorly fitted or top-dose-only effect, or effect the other way; inactive = no such curve, though single readings can be large or run the other way. Potencies of inconclusive entries are doubtful fits and often do not repeat.
% is scaled to controls: 0 for no effect and ±100 for the full control effect; potency is read from the fitted curve at half-maximal effect.
Also: nearly all actives have a fitted effect of over 60% in size.

Amino acid sequences for entries named in this document (tags omitted). A change or cut given only in a name is not applied to a line headed by its entry.
UniProt P51450: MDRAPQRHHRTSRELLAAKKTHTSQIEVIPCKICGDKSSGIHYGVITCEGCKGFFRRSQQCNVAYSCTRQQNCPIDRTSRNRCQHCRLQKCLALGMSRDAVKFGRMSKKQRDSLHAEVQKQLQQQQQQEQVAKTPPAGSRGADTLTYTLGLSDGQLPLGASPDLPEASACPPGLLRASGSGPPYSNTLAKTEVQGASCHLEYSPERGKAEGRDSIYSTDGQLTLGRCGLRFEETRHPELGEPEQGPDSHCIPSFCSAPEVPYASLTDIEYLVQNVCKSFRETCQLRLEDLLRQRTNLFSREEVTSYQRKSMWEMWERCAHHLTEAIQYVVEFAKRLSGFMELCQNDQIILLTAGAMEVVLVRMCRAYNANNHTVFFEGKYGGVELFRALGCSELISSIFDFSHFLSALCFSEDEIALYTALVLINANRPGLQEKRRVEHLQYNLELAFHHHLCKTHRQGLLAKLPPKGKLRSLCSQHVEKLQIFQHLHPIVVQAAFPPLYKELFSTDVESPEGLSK

What follows are compounds tested against Nuclear receptor ROR-gamma (Mus musculus) (UniProt P51450) (assay: qHTS for inhibitors of ROR gamma transcriptional activity). Conditions: Drosophila S2 Gal4-RORgamma UAS-luciferase reporter, 20 h; activity change, negative = inhibition: at 53.6 µM (top of the series).
Summary of the method: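 Drosophila Schneider cells stably carrying a metallothionein-driven Gal4 DBD–ROR gamma fusion and a UAS-Photinus luciferase reporter were exposed to compound for 1 hr, then induced with copper sulfate (700 uM final) for 20 hr at ambient temperature before luminescence reading.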
In the case of `CCOC(=O)Cc1c(C)[nH]n(-c2ccccc2)c1=O`, the “activity change, negative = inhibition” value is reported as inactive: -12.1%.
In the case of `COc1ccc(OCCCC(=O)NC(C)c2ccccc2)cc1` (stereo unspecified), the Potency is reported as inconclusive: 4.47 µM [activator, full curve, poor fit].
In the case of `CCn1c(Cc2ccc(OC)cc2)nnc1SCc1nc2ccccc2c(=O)[nH]1`, the Potency is reported as inconclusive: 12.6 µM [activator, single point].
`O=C(Nc1ccc(Cl)cn1)C1COc2ccccc2O1` (stereo unspecified) was tested, and the Potency was active: 3.98 µM.
For `COc1ccc(NC(=O)Cc2coc3cc(C)ccc23)cc1S(=O)(=O)N1CCOCC1`, the Potency was inconclusive: 22.4 µM [activator, single point].
In the case of `CCCCNC(=O)c1nn2c(C(F)(F)F)cc(-c3ccc(OC)cc3)nc2c1Br`, the Potency is reported as inconclusive: 5.01 µM [activator, full curve].
In the case of `COc1ccc(C(=O)Nc2cc(C)nn2-c2nc3ccccc3[nH]2)c(OC)c1`, the Potency is reported as active: 2.24 µM.
With `Cc1cc(C)c2nc(NNC(=O)c3cc(=O)c4ccccc4o3)sc2c1` the Potency was active: 5.01 µM.
In the case of `CCOc1ccc(NC(=O)c2c(NC(=O)CN3CCCC3)sc3c2CCC3)cc1`, the Potency is reported as active: 4.47 µM.
For `CCc1ccccc1NC(=O)CN(c1cccc(OC)c1)S(C)(=O)=O`, the Potency was inconclusive: 14.1 µM [activator, partial curve, poor fit].
In the case of `Cc1cccc(N2CCN(S(=O)(=O)c3cccc4nonc34)CC2)c1C`, the Potency is reported as inconclusive: 17.8 µM [activator, single point].
For `C[C@]1(C(=O)NCc2cc(F)cc(C(F)(F)F)c2)C=C[C@@H](Cc2ccccc2)N1C(=O)c1ccccc1`, the Potency was inconclusive: 35.5 µM [activator, single point].
`COC(=O)c1ccc(NC(=S)NC2CCc3ccccc32)cc1` (stereo unspecified) was tested, and the Potency was active: 7.94 µM.
In the case of `CCN(CC(=O)Nc1cccc(F)c1)Cc1nc2ccccc2c(=O)[nH]1`, the Potency is reported as inconclusive: 35.5 µM [inhibitor, single point].
With `Cc1cc(C)c(C(N)=O)c(Nc2ccc3c(c2)OCCO3)n1` the Potency was inconclusive: 10 µM [inhibitor, partial curve].
In the case of `Cc1ccc(S(=O)(=O)c2nc(NN(C)C)sc2Cl)cc1`, the Potency is reported as inconclusive: 28.2 µM [inhibitor, single point].
For `N#CC(C#N)=C1C=CC=CN1/C(=C\c1ccccc1Cl)C(=O)c1ccccc1`, the Potency was active: 6.31 µM.
`COc1ccc(C)cc1NC(=O)c1cccc(C(=O)Nc2cc(C)ccc2OC)c1` was tested, and the Potency was inconclusive: 15.8 µM [activator, single point].
With `Cc1ccc(C(=O)Oc2ccc(/C=C3\C(=N)N4N=C(N5CCOCC5)SC4=NC3=O)cc2)cc1` the Potency was inconclusive: 35.5 µM [inhibitor, single point].
For `O=C(CSc1nnc(Cc2ccccc2)o1)NCc1ccco1`, the Potency was inconclusive: 6.31 µM [inhibitor, single point].
`CN(Cc1c(C(=O)N2CCc3ccccc3C2)nc2ccc(Cl)cn12)C(C1CC1)C1CC1` was tested, and the “activity change, negative = inhibition” value was inactive: -16.2%.
With `COC(=O)[C@@]1(Cc2ccc(F)cc2)[C@H]2c3cc(C(=O)N4CCCC4)n(CCN4CNCC4=O)c3C[C@H]2CN1C(=O)c1ccccc1` the “activity change, negative = inhibition” value was inactive: 17.4%.
`CCOC(=O)C1(Cc2cccc(OC)c2)CCCN(C(=O)CCSC)C1` (stereo unspecified) was tested, and the Potency was inconclusive: 3.98 µM [activator, partial curve].
In the case of `CCOC(=O)Nc1ccc2c(COC(=O)c3ccccc3O)cc(=O)oc2c1`, the Potency is reported as inconclusive: 7.08 µM [activator, partial curve].
`O=C(NCCc1c[nH]c2ccccc12)C(=O)NCC(c1cccnc1)N1CCN(c2ccccc2)CC1` (stereo unspecified) was tested, and the Potency was inconclusive: 2.51 µM [activator, full curve, poor fit].
`C/C(=N\NC(=O)c1ccc2c(c1)OCO2)c1ccco1` was tested, and the Potency was inconclusive: 17.8 µM [inhibitor, single point].
For `COc1cccc(N2CCN(C(=O)CCCCCn3c(=S)[nH]c4cc5c(cc4c3=O)OCO5)CC2)c1`, the Potency was active: 2.24 µM.
For `O=C(Nc1ccc(Nc2ccccc2)cc1)c1cccc(F)c1`, the Potency was inconclusive: 1.78 µM [activator, full curve, poor fit].
`CC(C)C(=O)Nc1cccc(S(=O)(=O)c2cccc(NC(=O)C(C)C)c2)c1` was tested, and the Potency was inconclusive: 1.26 µM [activator, partial curve].
In the case of `Cc1ccc(N2N=C(c3ccc(F)cc3)CC2c2ccco2)cc1` (stereo unspecified), the Potency is reported as inconclusive: 17.8 µM [activator, single point].
With `Cc1nn(C)c(C(=O)NNC(=S)NCC(C)C)c1Cl` the Potency was active: 3.16 µM.
In the case of `CC(C)N=C1NN=C(c2ccc(F)cc2)CS1`, the Potency is reported as active: 7.08 µM.
In the case of `CC(C)(C)c1ccc(-n2ncc3c2CCCC3NC(=O)CN2CCCC2=O)cc1` (stereo unspecified), the Potency is reported as inconclusive: 3.55 µM [activator, single point].
In the case of `Cc1cc(C)n(-c2cccc(CN3CCC(CO)(Cc4ccccc4)CC3)c2)n1`, the “activity change, negative = inhibition” value is reported as inactive: -27.2%.
In the case of `O=S(=O)(c1ccc(F)cc1)N1CC2CCCN2c2ccc(C(F)(F)F)cc21` (stereo unspecified), the Potency is reported as inconclusive: 2.24 µM [inhibitor, partial curve].
`Cc1cc(=O)[nH]c(Nc2cccc(Br)c2)n1` was tested, and the Potency was inconclusive: 35.5 µM [activator, single point].
In the case of `C=CCOn1c(=O)c(-c2ccc(C)cc2)[n+]([O-])c2ccccc21`, the “activity change, negative = inhibition” value is reported as inactive: -17.5%.
In the case of `CCCOCCOC(=O)c1[nH]c2c(c1C)C(=O)CC(c1cc(OC)ccc1OC)C2` (stereo unspecified), the Potency is reported as inconclusive: 11.2 µM [activator, partial curve, poor fit].
`COc1cccc(CNc2nnnn2C)c1` was tested, and the “activity change, negative = inhibition” value was inactive: 27.5%.
In the case of `c1cc2cn[nH]c2cc1NC1CCCCCC1`, the Potency is reported as inconclusive: 28.2 µM [inhibitor, single point].
`O=C(Nc1nnc(-c2ccccc2)o1)c1ccc(Cl)cc1` was tested, and the Potency was active: 0.708 µM.
For `Cc1cnc(CN(C)C(=O)CC2C(=O)NCCN2Cc2cccc(F)c2F)[nH]1` (stereo unspecified), the “activity change, negative = inhibition” value was inactive: -20.8%.
With `Cc1nnc(SCc2ccc3c(c2)OCO3)s1` the Potency was inconclusive: 6.31 µM [activator, single point].
`COc1ccc(/C=C/c2cc(-c3ccc(C)cc3)o[n+]2C)cc1` was tested, and the Potency was inconclusive: 31.6 µM [inhibitor, single point].
`Cn1cccc1C(=O)N1CCC2(CC1)CCN(c1ccccc1)CC2` was tested, and the “activity change, negative = inhibition” value was inactive: 14%.
For `S=C1SCN(Cc2ccccc2)CN1Cc1ccccc1`, the Potency was inconclusive: 3.98 µM [inhibitor, single point].
For `CCOC(=O)/C(C#N)=C/c1c(N2CCN(Cc3ccc4c(c3)OCO4)CC2)nc2c(C)cccn2c1=O`, the “activity change, negative = inhibition” value was inactive: -1.68%.
`CC(NC(=S)Nc1ccc(OC(F)F)cc1)c1ccc(F)cc1` (stereo unspecified) was tested, and the Potency was active: 3.16 µM.
For `COc1ccc(OC)c(-n2c(=S)[nH]c3cc(C(=O)N(C)Cc4ccccc4)ccc3c2=O)c1`, the Potency was active: 12.6 µM.
For `CCOc1cc(C(=S)N2CCCC2)ccc1OCc1ccccc1`, the Potency was inconclusive: 28.2 µM [inhibitor, single point].
For `COc1cccc(NC(=O)NCc2ccccc2F)c1`, the Potency was inconclusive: 0.224 µM [activator, partial curve, poor fit].
For `Oc1ccc(Cl)cc1C1=NNC(c2ccc(Cl)cc2)C1` (stereo unspecified), the Potency was active: 8.91 µM.
In the case of `COc1cc(NC(=O)c2c(F)c(F)c(F)c(F)c2F)c(OC)cc1Cl`, the “activity change, negative = inhibition” value is reported as inactive: 20.5%.
`COCCCNc1oc(-c2cccs2)nc1S(=O)(=O)c1ccc(C)cc1` was tested, and the Potency was inconclusive: 12.6 µM [activator, partial curve].
`CCCCC(=O)NC(c1ccccc1Cl)c1c(O)ccc2ccccc12` (stereo unspecified) was tested, and the Potency was inconclusive: 35.5 µM [activator, single point].
With `COc1ccc(/C=C/C(=O)Oc2ccc(/C=N/NC(=O)c3ccncc3)cc2)cc1` the “activity change, negative = inhibition” value was inactive: -12.4%.
With `CCn1c(/C=C/c2ccccc2)nc2ccccc2c1=O` the “activity change, negative = inhibition” value was inactive: 33.4%.
In the case of `CCOC(=O)/C(C#N)=C\c1ccc(O)c(OC)c1`, the “activity change, negative = inhibition” value is reported as inactive: 15.3%.
`CC(OC(=O)c1cc(S(=O)(=O)Nc2ccc(F)cc2)ccc1Cl)C(=O)Nc1ccc2c(c1)OCCO2` (stereo unspecified) was tested, and the Potency was inconclusive: 6.31 µM [inhibitor, single point].
For `CCCCCc1ccc(OCCOCCn2c[n+](C)c3ccccc32)c(CCCCC)c1`, the Potency was inconclusive: 35.5 µM [inhibitor, single point].
In the case of `O=C(CC(=O)c1cc(Cl)ccc1O)c1ccccc1`, the Potency is reported as inconclusive: 14.1 µM [inhibitor, partial curve, poor fit].
`Cc1cc([N+](=O)[O-])ccc1NC(=O)CN1C2CCC1CC(NC(=O)NC13CC4CC(CC(C4)C1)C3)C2` (stereo unspecified) was tested, and the Potency was inconclusive: 2.51 µM [activator, full curve].
`CC(C)(O)c1[nH]c2cc(C(F)(F)F)ccc2c1C(C)(C)O` was tested, and the Potency was inconclusive: 3.16 µM [activator, partial curve].
With `CN(C(=O)CN1C(=O)/C(=C/c2ccccc2Cl)SC1=S)C1CCS(=O)(=O)C1` (stereo unspecified) the Potency was active: 10 µM.
In the case of `Cc1ccc(NC(=O)CCS(=O)(=O)c2cccc3nonc23)cc1Cl`, the Potency is reported as inconclusive: 31.6 µM [activator, single point].
`COc1ccc(C2=C/C(=C\c3cccc(OC(C)=O)c3)C(=O)O2)cc1` was tested, and the Potency was active: 7.08 µM.
For `CCOC(=O)c1sc2ncnc(NCC(c3cccs3)N(C)C)c2c1C` (stereo unspecified), the Potency was inconclusive: 20 µM [inhibitor, single point].
With `O=C(O)/C=C/c1cn(-c2ccccc2)nc1-c1cc2ccccc2o1` the Potency was inconclusive: 14.1 µM [activator, partial curve].
`OCCN1CCN(C(c2cccs2)c2ccc3cccnc3c2O)CC1` (stereo unspecified) was tested, and the Potency was active: 11.2 µM.
With `CCOc1ccc2[nH]c(=O)c(C(c3nnnn3Cc3ccco3)N3CCN(C)CC3)cc2c1` (stereo unspecified) the Potency was active: 3.55 µM.
For `CC(NC(=O)Cn1cnc([N+](=O)[O-])n1)c1ccccc1` (stereo unspecified), the “activity change, negative = inhibition” value was inactive: -9.28%.
